Experimental data published in patent US12478677B2, “Tunable luminescent organic salts for enhanced imaging and photodynamic therapy” (BOARD OF TRUSTEES OF MICHIGAN STATE UNIVERSITY, priority 2017, dated 2025).

Tested on: A549 cells
Assay: Colocalization of organic salt with Rhodamine123 (mitochondrial) fluorescence
Type: cell-based, human
Conditions: for Mander's Coefficient 2: overlap of green to red area; for Mander's Coefficient 1: overlap of red to green area; for Pearson's Coefficient: red (organic salt) vs green (Rhodamine123) fluorescence

Structure (SMILES) | Mander's Coefficient 2 | Mander's Coefficient 1 | Pearson's Coefficient
CCN1C(=CC=C2CCCC(C=CC3=[N+](CC)c4ccc5ccccc5c4C3(C)C)=C2Cl)C(C)(C)c2c1ccc1ccccc21.Fc1ccc([B-](c2ccc(F)cc2)(c2ccc(F)cc2)c2ccc(F)cc2)cc1 [CyFPhB] | 0.992 | 0.997 | 0.853
CCN1C(=CC=C2CCCC(C=CC3=[N+](CC)c4ccc5ccccc5c4C3(C)C)=C2Cl)C(C)(C)c2c1ccc1ccccc21.F[P-](F)(F)(F)(F)F [CyPF6] | 0.971 | 0.991 | 0.852
CCN1C(=CC=C2CCCC(C=CC3=[N+](CC)c4ccc5ccccc5c4C3(C)C)=C2Cl)C(C)(C)c2c1ccc1ccccc21.Fc1c(F)c(F)c([B-](c2c(F)c(F)c(F)c(F)c2F)(c2c(F)c(F)c(F)c(F)c2F)c2c(F)c(F)c(F)c(F)c2F)c(F)c1F [CyTPFB] | 0.983 | 0.967 | 0.901
